Test results: the supplement of paper PMC6411743
± gives the standard deviation of the averaged measurements. Some of the results follow.

Sequences of proteins named here, by UniProt entry; tags and fusion partners are left off. A change or cut given only in a name is not applied to a line headed by its entry.
UniProt Q5T8I9: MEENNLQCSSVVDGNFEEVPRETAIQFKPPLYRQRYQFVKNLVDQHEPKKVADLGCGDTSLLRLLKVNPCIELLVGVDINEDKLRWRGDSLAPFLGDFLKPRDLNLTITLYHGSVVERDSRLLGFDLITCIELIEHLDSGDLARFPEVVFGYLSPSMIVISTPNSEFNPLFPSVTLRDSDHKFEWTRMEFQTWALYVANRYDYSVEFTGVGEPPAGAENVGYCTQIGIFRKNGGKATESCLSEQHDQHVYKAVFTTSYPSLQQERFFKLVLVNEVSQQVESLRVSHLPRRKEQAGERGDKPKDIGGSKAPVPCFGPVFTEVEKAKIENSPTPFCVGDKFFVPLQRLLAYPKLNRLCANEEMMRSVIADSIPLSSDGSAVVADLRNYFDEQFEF
UniProt Q9Y2H0: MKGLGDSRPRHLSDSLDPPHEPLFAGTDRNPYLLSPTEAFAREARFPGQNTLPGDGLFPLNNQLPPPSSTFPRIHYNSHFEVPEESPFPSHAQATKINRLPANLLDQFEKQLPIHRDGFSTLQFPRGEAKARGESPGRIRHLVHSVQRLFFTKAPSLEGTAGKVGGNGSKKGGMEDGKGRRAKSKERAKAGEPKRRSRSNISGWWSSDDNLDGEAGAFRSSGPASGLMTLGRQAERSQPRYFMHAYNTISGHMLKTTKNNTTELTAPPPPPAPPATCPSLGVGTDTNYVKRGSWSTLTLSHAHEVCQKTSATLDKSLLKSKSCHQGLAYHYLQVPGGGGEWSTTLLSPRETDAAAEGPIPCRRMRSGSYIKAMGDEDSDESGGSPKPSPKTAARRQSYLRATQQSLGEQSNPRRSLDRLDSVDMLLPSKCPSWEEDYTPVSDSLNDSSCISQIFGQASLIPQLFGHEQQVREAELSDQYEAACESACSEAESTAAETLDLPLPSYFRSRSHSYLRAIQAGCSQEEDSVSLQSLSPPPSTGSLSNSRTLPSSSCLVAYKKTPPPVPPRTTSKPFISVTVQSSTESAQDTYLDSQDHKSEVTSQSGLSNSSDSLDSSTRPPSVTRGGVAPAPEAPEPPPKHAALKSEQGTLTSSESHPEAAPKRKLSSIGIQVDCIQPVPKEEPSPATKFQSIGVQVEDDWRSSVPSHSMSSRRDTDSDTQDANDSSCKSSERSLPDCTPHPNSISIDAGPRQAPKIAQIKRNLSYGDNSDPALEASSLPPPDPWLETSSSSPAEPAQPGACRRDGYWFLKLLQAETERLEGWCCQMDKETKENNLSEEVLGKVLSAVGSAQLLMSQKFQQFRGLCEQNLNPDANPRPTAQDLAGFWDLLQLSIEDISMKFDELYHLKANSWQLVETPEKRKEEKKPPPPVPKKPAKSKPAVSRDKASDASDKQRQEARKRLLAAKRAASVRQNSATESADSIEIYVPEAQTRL
UniProt P22061: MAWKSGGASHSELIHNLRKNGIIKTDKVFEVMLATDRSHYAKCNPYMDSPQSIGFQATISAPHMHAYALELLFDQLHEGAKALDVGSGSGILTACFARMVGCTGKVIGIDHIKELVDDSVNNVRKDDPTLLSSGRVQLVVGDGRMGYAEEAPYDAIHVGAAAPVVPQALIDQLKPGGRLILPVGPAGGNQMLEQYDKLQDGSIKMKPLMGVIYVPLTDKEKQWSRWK
UniProt Q96B45: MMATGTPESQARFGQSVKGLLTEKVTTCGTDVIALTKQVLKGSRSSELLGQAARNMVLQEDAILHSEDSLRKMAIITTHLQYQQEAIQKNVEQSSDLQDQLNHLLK
UniProt A2RRP1: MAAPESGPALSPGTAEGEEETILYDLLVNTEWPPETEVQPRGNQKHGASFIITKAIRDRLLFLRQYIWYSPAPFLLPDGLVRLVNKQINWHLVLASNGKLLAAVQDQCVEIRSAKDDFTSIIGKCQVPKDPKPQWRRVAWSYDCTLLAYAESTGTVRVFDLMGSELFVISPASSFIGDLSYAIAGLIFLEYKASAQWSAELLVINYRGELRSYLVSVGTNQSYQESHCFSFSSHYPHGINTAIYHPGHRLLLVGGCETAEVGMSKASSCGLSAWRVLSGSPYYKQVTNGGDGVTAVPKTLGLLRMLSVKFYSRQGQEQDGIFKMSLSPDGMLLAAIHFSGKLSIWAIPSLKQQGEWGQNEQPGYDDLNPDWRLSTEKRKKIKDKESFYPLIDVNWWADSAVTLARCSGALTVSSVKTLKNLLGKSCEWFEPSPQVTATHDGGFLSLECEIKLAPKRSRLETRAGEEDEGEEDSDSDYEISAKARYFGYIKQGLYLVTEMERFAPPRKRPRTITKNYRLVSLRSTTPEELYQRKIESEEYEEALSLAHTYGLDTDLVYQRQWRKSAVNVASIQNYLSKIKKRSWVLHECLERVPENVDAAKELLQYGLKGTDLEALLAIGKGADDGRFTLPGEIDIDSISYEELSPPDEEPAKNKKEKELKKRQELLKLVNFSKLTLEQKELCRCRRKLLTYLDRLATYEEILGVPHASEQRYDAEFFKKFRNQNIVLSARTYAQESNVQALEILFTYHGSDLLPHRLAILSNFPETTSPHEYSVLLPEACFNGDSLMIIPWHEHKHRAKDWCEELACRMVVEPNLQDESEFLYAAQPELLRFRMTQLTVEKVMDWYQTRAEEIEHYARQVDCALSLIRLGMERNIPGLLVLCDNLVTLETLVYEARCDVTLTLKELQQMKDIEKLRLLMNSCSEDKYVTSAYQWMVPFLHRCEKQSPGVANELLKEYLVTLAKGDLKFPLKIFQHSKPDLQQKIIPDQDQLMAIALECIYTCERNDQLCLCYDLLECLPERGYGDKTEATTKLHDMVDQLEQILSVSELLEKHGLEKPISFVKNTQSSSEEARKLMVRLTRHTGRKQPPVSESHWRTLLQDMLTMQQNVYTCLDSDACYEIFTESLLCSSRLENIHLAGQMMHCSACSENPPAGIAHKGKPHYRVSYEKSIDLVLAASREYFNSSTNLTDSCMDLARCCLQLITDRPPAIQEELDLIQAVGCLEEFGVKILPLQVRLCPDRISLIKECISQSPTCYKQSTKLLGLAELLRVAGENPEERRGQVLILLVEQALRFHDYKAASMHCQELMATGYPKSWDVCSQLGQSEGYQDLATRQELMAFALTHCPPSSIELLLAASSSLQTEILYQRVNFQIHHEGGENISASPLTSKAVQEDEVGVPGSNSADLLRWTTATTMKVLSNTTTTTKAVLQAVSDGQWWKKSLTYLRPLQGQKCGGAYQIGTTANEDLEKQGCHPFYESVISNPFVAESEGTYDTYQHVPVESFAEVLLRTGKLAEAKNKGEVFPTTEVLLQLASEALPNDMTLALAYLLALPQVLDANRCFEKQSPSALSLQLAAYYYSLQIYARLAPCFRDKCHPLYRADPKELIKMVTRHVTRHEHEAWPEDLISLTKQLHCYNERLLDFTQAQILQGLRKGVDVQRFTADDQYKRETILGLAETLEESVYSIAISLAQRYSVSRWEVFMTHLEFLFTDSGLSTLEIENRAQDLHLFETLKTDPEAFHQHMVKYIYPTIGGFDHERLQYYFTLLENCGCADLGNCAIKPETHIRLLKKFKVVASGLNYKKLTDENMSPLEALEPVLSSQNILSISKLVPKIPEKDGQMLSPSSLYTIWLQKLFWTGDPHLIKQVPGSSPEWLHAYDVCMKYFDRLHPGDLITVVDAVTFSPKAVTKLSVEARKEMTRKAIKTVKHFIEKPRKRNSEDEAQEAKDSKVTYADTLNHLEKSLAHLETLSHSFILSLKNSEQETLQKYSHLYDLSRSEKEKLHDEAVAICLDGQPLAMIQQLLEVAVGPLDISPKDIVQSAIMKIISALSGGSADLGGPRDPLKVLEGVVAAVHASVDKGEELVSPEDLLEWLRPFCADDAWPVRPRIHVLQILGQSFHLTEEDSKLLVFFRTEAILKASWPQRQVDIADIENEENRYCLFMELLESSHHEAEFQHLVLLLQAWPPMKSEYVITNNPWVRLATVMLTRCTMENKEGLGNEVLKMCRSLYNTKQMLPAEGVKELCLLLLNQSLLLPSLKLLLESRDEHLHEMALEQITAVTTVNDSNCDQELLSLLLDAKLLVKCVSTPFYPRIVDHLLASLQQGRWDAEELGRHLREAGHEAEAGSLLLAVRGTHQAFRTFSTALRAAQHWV
UniProt Q9UL46, whole entry: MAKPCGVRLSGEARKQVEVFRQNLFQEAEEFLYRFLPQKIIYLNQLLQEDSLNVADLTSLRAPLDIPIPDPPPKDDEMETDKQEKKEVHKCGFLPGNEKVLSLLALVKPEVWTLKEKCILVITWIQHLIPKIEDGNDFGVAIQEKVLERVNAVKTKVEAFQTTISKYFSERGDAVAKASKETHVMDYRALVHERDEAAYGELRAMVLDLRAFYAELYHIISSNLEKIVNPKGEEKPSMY
UniProt P98175: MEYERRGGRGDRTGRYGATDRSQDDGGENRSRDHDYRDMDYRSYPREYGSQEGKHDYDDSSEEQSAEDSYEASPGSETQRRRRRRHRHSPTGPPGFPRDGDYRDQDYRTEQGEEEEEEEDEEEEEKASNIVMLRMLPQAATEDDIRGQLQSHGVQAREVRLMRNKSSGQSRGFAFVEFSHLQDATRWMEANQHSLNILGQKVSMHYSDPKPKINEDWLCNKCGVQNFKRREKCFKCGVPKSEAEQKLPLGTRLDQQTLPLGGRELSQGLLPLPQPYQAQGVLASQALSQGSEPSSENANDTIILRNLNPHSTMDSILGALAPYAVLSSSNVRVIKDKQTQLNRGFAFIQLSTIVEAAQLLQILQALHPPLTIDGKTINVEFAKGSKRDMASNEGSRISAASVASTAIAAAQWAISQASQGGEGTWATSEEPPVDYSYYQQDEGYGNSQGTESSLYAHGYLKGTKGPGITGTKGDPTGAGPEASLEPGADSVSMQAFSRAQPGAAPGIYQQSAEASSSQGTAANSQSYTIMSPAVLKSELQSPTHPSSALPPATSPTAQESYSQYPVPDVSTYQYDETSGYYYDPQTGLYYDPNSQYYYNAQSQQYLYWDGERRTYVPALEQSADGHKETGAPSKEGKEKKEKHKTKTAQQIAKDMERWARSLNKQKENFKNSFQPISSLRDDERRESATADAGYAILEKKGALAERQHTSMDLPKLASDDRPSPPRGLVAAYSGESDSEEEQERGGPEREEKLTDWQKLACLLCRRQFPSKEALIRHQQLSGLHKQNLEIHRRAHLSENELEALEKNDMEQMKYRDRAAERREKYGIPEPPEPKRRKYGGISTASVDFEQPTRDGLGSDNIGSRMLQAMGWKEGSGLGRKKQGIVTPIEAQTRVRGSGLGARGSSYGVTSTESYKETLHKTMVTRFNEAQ
UniProt Q9NP79: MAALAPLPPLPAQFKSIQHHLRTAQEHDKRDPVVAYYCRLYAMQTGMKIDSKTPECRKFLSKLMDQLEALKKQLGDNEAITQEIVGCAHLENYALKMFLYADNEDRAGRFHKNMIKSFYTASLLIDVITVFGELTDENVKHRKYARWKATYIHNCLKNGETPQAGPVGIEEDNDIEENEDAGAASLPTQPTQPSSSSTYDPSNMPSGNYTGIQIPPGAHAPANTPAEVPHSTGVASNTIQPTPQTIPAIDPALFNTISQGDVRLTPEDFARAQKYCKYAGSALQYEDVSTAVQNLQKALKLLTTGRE
UniProt P05161, whole entry: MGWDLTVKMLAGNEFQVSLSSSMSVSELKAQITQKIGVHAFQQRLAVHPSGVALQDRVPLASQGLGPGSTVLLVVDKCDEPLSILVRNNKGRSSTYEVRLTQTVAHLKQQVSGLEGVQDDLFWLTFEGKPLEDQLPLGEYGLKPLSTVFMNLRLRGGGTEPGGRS
UniProt O60613, whole entry: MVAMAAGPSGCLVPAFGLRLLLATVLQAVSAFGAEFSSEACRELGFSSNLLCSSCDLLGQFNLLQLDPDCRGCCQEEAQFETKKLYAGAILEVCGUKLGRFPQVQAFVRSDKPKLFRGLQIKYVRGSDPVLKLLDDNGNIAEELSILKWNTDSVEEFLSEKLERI
UniProt Q14978: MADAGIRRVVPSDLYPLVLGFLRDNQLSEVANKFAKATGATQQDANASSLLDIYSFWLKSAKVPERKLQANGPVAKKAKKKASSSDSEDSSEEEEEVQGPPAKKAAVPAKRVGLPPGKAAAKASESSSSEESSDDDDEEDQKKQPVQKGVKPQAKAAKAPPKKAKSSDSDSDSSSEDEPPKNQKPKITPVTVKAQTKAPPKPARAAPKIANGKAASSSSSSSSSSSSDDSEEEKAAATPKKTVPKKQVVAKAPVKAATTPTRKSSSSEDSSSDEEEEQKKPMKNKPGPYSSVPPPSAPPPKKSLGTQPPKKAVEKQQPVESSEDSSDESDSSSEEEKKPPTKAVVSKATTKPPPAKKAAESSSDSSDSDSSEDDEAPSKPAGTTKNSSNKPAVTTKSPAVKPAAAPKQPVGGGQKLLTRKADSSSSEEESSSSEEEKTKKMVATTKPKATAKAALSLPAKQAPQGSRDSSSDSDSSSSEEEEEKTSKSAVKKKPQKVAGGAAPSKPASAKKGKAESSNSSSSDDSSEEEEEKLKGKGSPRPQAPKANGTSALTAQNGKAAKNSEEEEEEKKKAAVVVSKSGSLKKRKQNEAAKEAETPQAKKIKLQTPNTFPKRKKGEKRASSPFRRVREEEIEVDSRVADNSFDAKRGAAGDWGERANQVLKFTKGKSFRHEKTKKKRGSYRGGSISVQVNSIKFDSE

Compound: Nc1nc2c(ncn2[C@@H]2O[C@H](COP(=O)(O)OP(=O)(O)OP(=O)(O)O)[C@@H](O)[C@H]2O)c(=O)[nH]1 [guanosine triphosphate]
Assay: NP40-soluble protein abundance relative to vehicle (solubility fold change) (ratio); higher = more soluble protein in presence of GTP
Summary of the method: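 Values are fold changes against the detergent-processed vehicle, based on vsn-normalised intensities. Jurkat crude lysate was treated at eight concentrations from 0.1 to 10 mM (10 min at room temperature, then 3 min at 37 °C), solubilised with 0.8% NP40 and benzonase, ultracentrifuged and analysed by TMT-labelled LC-MS/MS over three independent experiments.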

Target	NP40-soluble protein abundance (concentration: 0.1mM)	NP40-soluble protein abundance (concentration: 0.5mM)	NP40-soluble protein abundance (concentration: 1mM)	NP40-soluble protein abundance (concentration: 2mM)	NP40-soluble protein abundance (concentration: 4mM)	NP40-soluble protein abundance (concentration: 6mM)	NP40-soluble protein abundance (concentration: 8mM)	NP40-soluble protein abundance (concentration: 10mM)
A0A0A0MRN5|Q9NZT2 and related entries (UniProt Q9NZT2)	0.928 ± 0.042	0.925 ± 0.027	0.894 ± 0.041	0.904 ± 0.023	0.878 ± 0.033	0.876 ± 0.02	0.844 ± 0.048	0.898 ± 0.032
A0A0A0MRN1|Q5T8I9 (UniProt Q5T8I9)	1.02 ± 0.11	0.965 ± 0.1	0.903 ± 0.15	0.93 ± 0.08	0.908 ± 0.12	0.943 ± 0.012	0.879 ± 0.015	0.932 ± 0.029
A0A0R4J2F3|Q9Y2S0 and related entries (UniProt Q9Y2S0)	1.01 ± 0.075	0.925 ± 0.056	1.11 ± 0.2	1.16 ± 0.14	1.2 ± 0.17	1.17 ± 0.12	1.15 ± 0.21	1.24 ± 0.28
A0A0A0MRJ0|Q5VT25 and related entries (UniProt Q5VT25)	0.998 ± 0.013	1.03 ± 0.049	1.17 ± 0.025	1.25 ± 0.12	1.25 ± 0.033	1.17 ± 0.078	1.27 ± 0.041	1.2 ± 0.048
A0A0A0MRF9|P16885 (UniProt P16885)	1.05 ± 0.049	1.08 ± 0.091	0.934 ± 0.045	1 ± 0.099	0.963 ± 0.079	0.943 ± 0.07	0.892 ± 0.043	0.868 ± 0.049
A0A0B4J2C2|Q9Y2H0 and related entries (UniProt Q9Y2H0)	1.03 ± 0.099	1.07 ± 0.18	1.13 ± 0.087	1.09 ± 0.12	0.984 ± 0.094	1.01 ± 0.25	1.04 ± 0.093	1.12 ± 0.18
A0A0A0MRJ6|C9J0F2 and related entries (UniProt P22061)	0.912 ± 0.074	0.923 ± 0.037	0.938 ± 0.046	0.91 ± 0.06	0.909 ± 0.054	0.928 ± 0.062	0.892 ± 0.069	0.925 ± 0.035
A0A0A0MT23|A0A0A0MSZ1|J3KNR0 (UniProt P27448)	1.08 ± 0.038	1.1 ± 0.094	1.04 ± 0.12	0.975 ± 0.11	0.949 ± 0.096	0.938 ± 0.097	0.955 ± 0.094	0.953 ± 0.063
A0A0A0MTB8|Q8NI36 (UniProt Q8NI36)	1.1 ± 0.013	1.18 ± 0.047	1.2 ± 0.064	1.55 ± 0.056	2 ± 0.13	2.39 ± 0.2	2.33 ± 0.13	2.39 ± 0.3
A0A0G2JIA5|A0A140TA36|A0A140TA45|Q5ST30-4 (UniProt Q5ST30)	1.03 ± 0.06	1.01 ± 0.046	0.992 ± 0.05	0.97 ± 0.027	0.977 ± 0.025	0.947 ± 0.045	0.97 ± 0.064	0.962 ± 0.039
A0A0B4J1R7|Q96B45 (UniProt Q96B45)	0.918 ± 0.15	0.977 ± 0.18	1.02 ± 0.17	1.09 ± 0.11	1.09 ± 0.24	1 ± 0.19	1.02 ± 0.12	1.06 ± 0.18
UniProt A2RRP1	1.08 ± 0.046	1.1 ± 0.14	1.01 ± 0.087	1.05 ± 0.14	1.06 ± 0.1	1.05 ± 0.13	1.01 ± 0.079	0.979 ± 0.11
A0A087X1Z3|Q9UL46 (UniProt Q9UL46)	0.855 ± 0.11	0.814 ± 0.067	1.03 ± 0.14	1.04 ± 0.062	1.04 ± 0.094	1.01 ± 0.053	0.919 ± 0.19	1.1 ± 0.18
A0A0A0MR66|P98175 and related entries (UniProt P98175)	0.994 ± 0.035	1.03 ± 0.028	1.06 ± 0.013	1.08 ± 0.041	1.15 ± 0.042	1.21 ± 0.049	1.28 ± 0.098	1.28 ± 0.12
A0A087WY55|Q9NP79 (UniProt Q9NP79)	0.88 ± 0.098	0.798 ± 0.056	1.07 ± 0.15	1.03 ± 0.04	1.02 ± 0.077	0.972 ± 0.025	0.939 ± 0.091	1.06 ± 0.2
A0A0C4DFL8|F5GX28 and related entries (UniProt O94953)	0.979 ± 0.09	0.964 ± 0.055	0.924 ± 0.2	0.964 ± 0.19	0.926 ± 0.14	0.873 ± 0.11	0.91 ± 0.17	0.923 ± 0.096
A0A096LNZ9|A0A096LPJ4|P05161 (UniProt P05161)	0.9514 ± 0.0057	0.961 ± 0.023	0.899 ± 0.019	0.888 ± 0.02	0.869 ± 0.026	0.885 ± 0.035	0.83 ± 0.034	0.836 ± 0.034
A0A0A0MTH3|Q13418 (UniProt Q13418)	1 ± 0.025	0.989 ± 0.044	0.946 ± 0.024	0.94 ± 0.045	0.946 ± 0.043	0.93 ± 0.043	0.915 ± 0.02	0.883 ± 0.037
A0A0A0MRE6|O94967 and related entries (UniProt O94967)	1.05 ± 0.084	1.08 ± 0.083	1.002 ± 0.0072	1.05 ± 0.061	0.924 ± 0.018	0.983 ± 0.076	0.94 ± 0.036	1.01 ± 0.039
A0A087X1G7|A0A0B4J1S4|O60613 (UniProt O60613)	1.06 ± 0.053	1.04 ± 0.093	1.04 ± 0.085	1.06 ± 0.041	1.04 ± 0.045	1.06 ± 0.043	1.07 ± 0.082	1.05 ± 0.061
A0A0J9YXZ6|Q4VXZ8 and related entries (UniProt Q9NUI1)	1.03 ± 0.018	1.035 ± 0.0051	1.05 ± 0.013	1.06 ± 0.024	1.063 ± 0.0061	1.05 ± 0.041	1.059 ± 0.01	1.054 ± 0.0072
A0A0B4J1W0|B4DDR8 and related entries (UniProt O75448)	1.04 ± 0.07	1.08 ± 0.08	1.09 ± 0.11	1.13 ± 0.15	1.23 ± 0.11	1.12 ± 0.19	1.21 ± 0.13	1.11 ± 0.25
A0A0J9YWL0|Q9Y4K1 (UniProt Q9Y4K1)	0.999 ± 0.017	1.03 ± 0.034	1.01 ± 0.025	1.02 ± 0.038	1.04 ± 0.029	1.063 ± 0.0069	1.07 ± 0.046	1.07 ± 0.024
A0A0A0MQT4|Q5QP82 and related entries (UniProt Q5QP82)	1.08 ± 0.081	0.9643 ± 0.0031	0.934 ± 0.015	0.984 ± 0.026	0.928 ± 0.036	0.97 ± 0.038	1.06 ± 0.018	1.01 ± 0.0013
A0A0A0MRM9|Q14978 and related entries (UniProt Q14978)	0.867 ± 0.045	0.851 ± 0.12	0.956 ± 0.12	1.01 ± 0.16	1.18 ± 0.14	1.35 ± 0.15	1.44 ± 0.079	1.64 ± 0.13

Part of the list above, set out differently:
A0A0A0MR66|P98175 and related entries (UniProt P98175)
  NP40-soluble protein abundance (concentration: 0.1mM): 0.994 ± 0.035; NP40-soluble protein abundance (concentration: 0.5mM): 1.03 ± 0.028; NP40-soluble protein abundance (concentration: 1mM): 1.06 ± 0.013; NP40-soluble protein abundance (concentration: 2mM): 1.08 ± 0.041; NP40-soluble protein abundance (concentration: 4mM): 1.15 ± 0.042; NP40-soluble protein abundance (concentration: 6mM): 1.21 ± 0.049; NP40-soluble protein abundance (concentration: 8mM): 1.28 ± 0.098; NP40-soluble protein abundance (concentration: 10mM): 1.28 ± 0.12
A0A087WY55|Q9NP79 (UniProt Q9NP79)
  NP40-soluble protein abundance (concentration: 0.1mM): 0.88 ± 0.098; NP40-soluble protein abundance (concentration: 0.5mM): 0.798 ± 0.056; NP40-soluble protein abundance (concentration: 1mM): 1.07 ± 0.15; NP40-soluble protein abundance (concentration: 2mM): 1.03 ± 0.04; NP40-soluble protein abundance (concentration: 4mM): 1.02 ± 0.077; NP40-soluble protein abundance (concentration: 6mM): 0.972 ± 0.025; NP40-soluble protein abundance (concentration: 8mM): 0.939 ± 0.091; NP40-soluble protein abundance (concentration: 10mM): 1.06 ± 0.2
